Patent publication US20190248901A1 (NOVELOGICS BIOTECHNOLOGY, published 2019)
No constants are given. Whether binding was seen depends on the method and setting. Some entries that bind do so weakly or less than the wild type. For part of these data: Tags and fused reporters may be left off the sequences shown.

Legend:
[1] = biological target: T1, recombinant extracellular alpha-3 domain of MICA (allele 001), His-tagged, Baculovirus/Sf9 expressed (human) (UniProt Q29983); test: indirect ELISA
T1 sequence: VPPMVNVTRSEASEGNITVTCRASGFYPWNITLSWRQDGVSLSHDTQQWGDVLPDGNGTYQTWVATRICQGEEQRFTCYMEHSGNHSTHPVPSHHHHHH

[2] = biological target: T2, soluble MICB (sMICB) shed from prostate cancer DU-145 cells (human) (UniProt Q29980); test: subtractive immunoprecipitation from DU-145 conditioned medium with antibody on Protein G PLUS-agarose beads; remaining sMICB measured by MICB ELISA
T2 sequence (looked up): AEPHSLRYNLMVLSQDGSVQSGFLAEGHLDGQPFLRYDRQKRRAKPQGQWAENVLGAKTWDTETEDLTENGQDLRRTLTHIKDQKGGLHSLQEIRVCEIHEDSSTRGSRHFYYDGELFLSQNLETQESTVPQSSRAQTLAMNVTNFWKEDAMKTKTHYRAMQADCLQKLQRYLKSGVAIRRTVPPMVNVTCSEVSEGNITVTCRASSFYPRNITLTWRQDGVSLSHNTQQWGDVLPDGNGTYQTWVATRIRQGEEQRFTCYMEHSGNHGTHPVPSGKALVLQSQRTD

[3] = biological target: T3, synthetic MICA*001 alpha-3 peptides with core sequence QQWGDVLP (human); test: Pepscan peptide array ELISA
T3 sequence (peptide): QQWGDVLP

Measured: binding

B1: monoclonal antibody 5C9 (antibody, V domains shown)
VH: QVQLQQSGAELVRPGTSVKVSCKASGYAFTNYLIEWVKQRPGQGLEWIGLIYPGSGGTNYNEKFKGKATLTADKSSSTAYMQLSSLTSDDSAVYFCARIYYGNRDYGMDYWGQGTSVTVSS
VL: MTQTPLSLPVSLGDQASISCRSSQSIVHSNGNTYLEWYLQKPGQSPKLLIYKVSNRFSGVPDRFSGSGSGTDFTLKISRVEAEDLGVYYCFQGSHVPFTFGSGTKLEIK
notes: Mouse hybridoma antibody; Used as hybridoma supernatant in the screening and immunoprecipitation assays; also called mAb 5C9; antibody from hybridoma clone 5C9
binds: all assays above
